These are yes or no findings as the source states them, for the method shown. Where a sequence is shown, tags or fusion partners need not be part of it.
Legend:
[1] = molecular target: T1, GST-fused LRP6 PPPAPxS (residues 1485–1497 of human LRP6, S1490A), treated with GSK3β and CK1 (human) (UniProt O75581); test: far-Western, overlay or dot blot; GST-fused LRP6 fragments (with or without prior treatment with GSK3β and CK1) run on SDS-PAGE and transferred to PVDF; membrane incubated 3 h with 1 µg/ml GSK3β in 5% skim milk in TBST (20 mM Tris pH 7.6, 137 mM NaCl, 0.05% Tween 20); bound GSK3β detected with anti-GSK3β antibody; both purified
T1 sequence: LNPPPAPATERSH

Protein sequences, listed by entry. Tags and fused reporters are not part of them. Lines headed by an entry give the natural chain unless they say otherwise; changes in a name come on top. Residues count along the entry.
UniProt O75581: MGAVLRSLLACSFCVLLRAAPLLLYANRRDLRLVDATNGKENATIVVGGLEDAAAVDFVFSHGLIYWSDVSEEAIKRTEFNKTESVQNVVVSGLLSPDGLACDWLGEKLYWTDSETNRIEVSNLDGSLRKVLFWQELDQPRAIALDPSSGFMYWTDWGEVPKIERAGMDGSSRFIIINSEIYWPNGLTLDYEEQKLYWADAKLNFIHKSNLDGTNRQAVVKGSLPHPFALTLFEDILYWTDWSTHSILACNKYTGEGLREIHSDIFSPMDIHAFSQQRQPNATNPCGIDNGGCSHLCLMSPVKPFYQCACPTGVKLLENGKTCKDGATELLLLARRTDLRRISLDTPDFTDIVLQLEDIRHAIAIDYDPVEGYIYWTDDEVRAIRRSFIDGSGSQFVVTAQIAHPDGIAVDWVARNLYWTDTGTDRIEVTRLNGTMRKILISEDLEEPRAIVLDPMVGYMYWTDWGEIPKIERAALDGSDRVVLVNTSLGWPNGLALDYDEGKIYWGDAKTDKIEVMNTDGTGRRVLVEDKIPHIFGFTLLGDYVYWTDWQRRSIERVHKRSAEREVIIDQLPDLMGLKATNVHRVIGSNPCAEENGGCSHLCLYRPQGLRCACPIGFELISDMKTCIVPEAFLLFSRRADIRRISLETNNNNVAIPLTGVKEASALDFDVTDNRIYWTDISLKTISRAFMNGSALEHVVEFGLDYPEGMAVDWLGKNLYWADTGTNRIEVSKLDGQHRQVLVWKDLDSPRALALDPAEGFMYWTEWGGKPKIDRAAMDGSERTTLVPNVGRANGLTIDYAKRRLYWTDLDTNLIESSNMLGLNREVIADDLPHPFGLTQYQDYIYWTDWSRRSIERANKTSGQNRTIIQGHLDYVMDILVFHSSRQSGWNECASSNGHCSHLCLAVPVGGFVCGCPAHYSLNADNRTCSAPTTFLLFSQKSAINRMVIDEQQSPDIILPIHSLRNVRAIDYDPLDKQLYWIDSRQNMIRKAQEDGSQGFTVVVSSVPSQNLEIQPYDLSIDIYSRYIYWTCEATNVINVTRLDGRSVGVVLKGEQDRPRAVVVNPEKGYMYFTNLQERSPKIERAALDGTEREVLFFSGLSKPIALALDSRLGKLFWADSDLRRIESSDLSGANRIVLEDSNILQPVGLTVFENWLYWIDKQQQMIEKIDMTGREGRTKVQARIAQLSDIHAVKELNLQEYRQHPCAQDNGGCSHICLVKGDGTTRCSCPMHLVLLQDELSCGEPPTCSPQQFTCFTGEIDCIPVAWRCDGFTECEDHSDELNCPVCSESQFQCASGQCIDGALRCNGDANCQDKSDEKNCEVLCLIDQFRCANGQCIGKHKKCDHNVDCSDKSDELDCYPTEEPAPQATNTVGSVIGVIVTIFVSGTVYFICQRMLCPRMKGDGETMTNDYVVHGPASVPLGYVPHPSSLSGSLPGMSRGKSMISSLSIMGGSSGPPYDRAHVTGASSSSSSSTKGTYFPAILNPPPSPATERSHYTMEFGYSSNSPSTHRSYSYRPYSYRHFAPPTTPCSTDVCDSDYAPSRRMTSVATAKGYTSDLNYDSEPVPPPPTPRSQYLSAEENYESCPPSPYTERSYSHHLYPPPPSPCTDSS
UniProt Q9WV60, residues 27-393: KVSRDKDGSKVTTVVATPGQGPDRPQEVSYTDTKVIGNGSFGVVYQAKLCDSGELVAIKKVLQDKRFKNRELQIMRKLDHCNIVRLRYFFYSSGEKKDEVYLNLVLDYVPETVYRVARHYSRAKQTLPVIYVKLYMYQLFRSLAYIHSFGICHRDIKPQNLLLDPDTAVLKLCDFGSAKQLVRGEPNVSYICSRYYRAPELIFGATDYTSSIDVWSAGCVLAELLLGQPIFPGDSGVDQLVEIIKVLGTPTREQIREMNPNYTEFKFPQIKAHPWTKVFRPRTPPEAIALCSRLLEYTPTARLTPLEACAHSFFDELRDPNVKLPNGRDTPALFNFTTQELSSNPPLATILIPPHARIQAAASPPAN

[2] = molecular target: T2, GST-fused LRP6 PPPSPxS (residues 1485–1497 of human LRP6), treated with GSK3β and CK1 (human) (UniProt O75581); test: as above
T2 sequence: LNPPPSPATERSH

## catalytic domain of mouse GSK3β (residues 27–393) (from UniProt Q9WV60 27-393) (enzyme)
[1]
  binding: no binding (tested: 1 µg/ml of GSK3β)
[2]
  binding: no binding (tested: 1 µg/ml of GSK3β)
